Residue numbers refer to the chain shown, from its start. No constants are given. Whether binding was seen depends on the method and setting. In cells and extracts the contact can be indirect. Some entries that bind do so weakly or less than the wild type. Tags and fused reporters may be left off the sequences shown.
Columns and labels:
[1] = molecular target: T1, EGFP-Myc-WT-Nrf2 (Nuclear factor E2 p45-related factor 2, wild type) (UniProt Q16236); assay: proximity ligation; Keap1-null MEFs co-transfected 48 h; MG132 (10 μM, 4 h); without or with A769662 (50 μM, 4 h); fixed with 4% paraformaldehyde; primary antibodies against HA tag (βTrCP2) and MYC tag (Nrf2); Duolink PLA, confocal microscopy
T1 sequence: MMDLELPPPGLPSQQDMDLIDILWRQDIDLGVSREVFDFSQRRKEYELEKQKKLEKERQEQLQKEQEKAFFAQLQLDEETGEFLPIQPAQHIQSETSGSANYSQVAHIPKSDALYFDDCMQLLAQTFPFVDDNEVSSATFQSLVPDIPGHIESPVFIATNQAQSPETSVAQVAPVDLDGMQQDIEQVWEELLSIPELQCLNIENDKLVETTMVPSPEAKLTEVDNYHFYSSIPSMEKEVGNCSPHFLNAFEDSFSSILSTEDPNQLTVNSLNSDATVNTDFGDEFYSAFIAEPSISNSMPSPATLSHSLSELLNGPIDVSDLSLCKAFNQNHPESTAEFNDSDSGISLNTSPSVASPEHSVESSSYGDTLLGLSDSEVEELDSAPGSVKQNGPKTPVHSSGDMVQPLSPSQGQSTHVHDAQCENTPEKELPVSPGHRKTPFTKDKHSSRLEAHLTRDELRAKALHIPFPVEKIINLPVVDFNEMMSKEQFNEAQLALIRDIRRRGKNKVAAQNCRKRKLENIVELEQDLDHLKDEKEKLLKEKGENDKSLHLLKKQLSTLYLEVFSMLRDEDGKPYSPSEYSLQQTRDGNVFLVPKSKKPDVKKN

By UniProt entry, the sequences of proteins in these tests, tags left out.
UniProt Q9UKB1: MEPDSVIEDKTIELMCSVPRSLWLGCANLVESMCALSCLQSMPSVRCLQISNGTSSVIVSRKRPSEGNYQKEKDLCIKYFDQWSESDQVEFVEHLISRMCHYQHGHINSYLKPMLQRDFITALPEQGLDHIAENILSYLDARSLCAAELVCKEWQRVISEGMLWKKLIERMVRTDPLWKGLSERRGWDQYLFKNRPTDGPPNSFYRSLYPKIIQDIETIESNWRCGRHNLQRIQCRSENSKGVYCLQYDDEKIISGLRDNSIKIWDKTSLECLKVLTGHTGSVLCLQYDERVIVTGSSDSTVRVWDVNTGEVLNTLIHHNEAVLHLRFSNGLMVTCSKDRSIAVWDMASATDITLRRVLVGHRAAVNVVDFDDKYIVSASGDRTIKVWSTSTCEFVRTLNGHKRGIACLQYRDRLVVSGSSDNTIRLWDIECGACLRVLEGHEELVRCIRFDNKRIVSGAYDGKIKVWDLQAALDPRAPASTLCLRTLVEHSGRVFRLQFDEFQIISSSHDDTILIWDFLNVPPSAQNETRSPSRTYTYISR

[2] = molecular target: T2, EGFP-Myc-TM-Nrf2 (triple serine-alanine mutant Nrf2 S374/408/433→A) (UniProt Q16236); assay: as above
T2 sequence: T1 sequence with S374A, S408A, S433A

[3] = molecular target: T1, EGFP-Myc-WT-Nrf2 (Nuclear factor E2 p45-related factor 2, wild type); assay: co-IP; Keap1-null MEFs co-transfected 48 h; MG132 (10 μM, 4 h); without or with the AMPK activator A769662 (50 μM, 4 h); EGFP-Myc-Nrf2 pulled down with GFP-Trap; blots for MYC and HA
[4] = molecular target: T2, EGFP-Myc-TM-Nrf2 (triple serine-alanine mutant Nrf2 S374/408/433→A); assay: as above

- binding [1]: binds
- binding [2]: binds
- binding [3]: binds
- binding [4]: binds
Substance: HA-tagged βTrCP2 (FBXW11) (from UniProt Q9UKB1 1-542)

Reference: PMC10451539
